From paper PMC4738278
Results are given in words; binding and its absence hold for the method and conditions named. Some entries that bind do so weakly or less than the wild type.

Target: T1, AtERF017 (Arabidopsis) (UniProt Q84QC2)
T1 sequence: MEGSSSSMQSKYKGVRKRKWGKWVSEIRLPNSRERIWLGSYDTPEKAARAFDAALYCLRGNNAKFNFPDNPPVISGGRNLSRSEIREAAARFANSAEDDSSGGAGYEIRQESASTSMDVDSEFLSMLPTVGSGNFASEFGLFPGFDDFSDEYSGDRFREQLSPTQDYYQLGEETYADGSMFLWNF
Assay: two-hybrid; DUALhunter system, pairwise: ERF in pDHB1 as bait, VHA-c subunit in pPR3N as prey, yeast NMY51; growth on QDO and QDO + 10 mM 3AT

B1: AtVHA-c4 (protein, UniProt P59229 1-166)
chain: MASSGFSGDETAPFFGFLGAAAALVFSCMGAAYGTAKSGVGVASMGVMRPELVMKSIVPVVMAGVLGIYGLIIAVIISTGINPKAKSYYLFDGYAHLSSGLACGLAGLSAGMAIGIVGDAGVRANAQQPKLFVGMILILIFAEALALYGLIVGIILSSRAGQSRAE
- binding: binds
